Percent effect of library compounds

By UniProt entry, the sequences of proteins in these tests, tags left out.
UniProt P9WFT3, whole entry: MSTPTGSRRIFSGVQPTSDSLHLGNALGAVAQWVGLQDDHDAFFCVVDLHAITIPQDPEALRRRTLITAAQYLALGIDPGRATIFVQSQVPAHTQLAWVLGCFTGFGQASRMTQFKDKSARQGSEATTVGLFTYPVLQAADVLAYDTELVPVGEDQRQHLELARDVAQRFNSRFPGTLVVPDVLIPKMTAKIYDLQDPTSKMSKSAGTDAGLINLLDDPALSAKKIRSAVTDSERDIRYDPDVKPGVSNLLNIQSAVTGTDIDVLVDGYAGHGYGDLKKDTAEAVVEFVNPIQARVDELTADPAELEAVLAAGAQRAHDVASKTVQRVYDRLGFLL

Data taken from ChEMBL document CHEMBL3988442, “University of Dundee, Small-Polar-MMV Screening Library” (2021).

Each number is a percent effect as filed. How 0% and 100% were set is not recorded. Most values in the screen are low, and negative values occur. The compounds are a random part of those screened.

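Enzyme assay of tryptophanyl-tRNA synthetase; the read-out is not stated. Target: Tryptophan-tRNA ligase, Mycobacterium tuberculosis (UniProt P9WFT3). Compounds at 10 µM. Direction is not recorded; retested compounds ran higher, which suggests that high means inhibition. About 65,000 compounds were tested under these conditions; 0.098% (about 64) showed 50% or more at least once.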

compound	effect
Cn1c(-c2ccccc2)nn(CCNS(=O)(=O)c2ccccc2Cl)c1=O	0.3799%
Cc1cc(NC(C)c2nncn2C2CCCC2)n2nc(C)c(C)c2n1 (centres unmarked)	8.228%
Cc1cc(NC(=O)CNC2CCc3ncnn3C2)no1 (centres unmarked)	-8.205%
CCS(=O)(=O)NC1CCCN(Cc2ccn(C)c(=O)c2)C1 (centres unmarked)	-1.051%
N#Cc1ccc(C(=O)N2CCOC[C@H](Oc3cnccn3)C2)cc1	0.6865%
O=S(=O)(NCCSc1nncn1C1CC1)c1ccccc1	-0.8675%
Cc1nsc(NC(=O)N2CCCC2C)n1 (centres unmarked)	-4.919%
CCc1[nH]c2c(CNC(=O)C3CCCN(C)C3)cc(C)cc2c1C (centres unmarked)	-3.039%
CN(Cc1ccsc1)C(=O)Cn1c(CS(C)(=O)=O)nc2ccccc21	0.1467%
CNc1oc(-c2ccc(S(=O)(=O)N(C)C)o2)nc1C#N	-0.9488%
CCc1nc(C(=O)N2CCOCC2)nn1-c1ccccc1Cl	-6.07%
Cn1[nH]c(CNc2cccc(Cl)c2)nc1=O	2.522%
NC(=O)c1ccc2c(c1)nc1n2CCN(Cc2cccnc2)C1	5.966%
COc1cccc(CN2CCCCCC2c2sccc2C)c1O (centres unmarked)	2.054%
CCc1ccc(CNC(=O)NCc2nnc3n2CCC3)s1	15.03%
CCc1ccc(C(=O)NCCCC2(C3OCCO3)CCOCC2)cc1	20.27%
CCN1CC(C(=O)NCc2nc(C3CCCCC3)no2)CC1=O (centres unmarked)	-3.307%
CN1CCCn2c(nc(CNC(=O)c3nccn3C)cc2=O)C1	-0.6347%
Cc1nc(C)c(C(=O)N2CCCc3c(F)cccc32)o1	-1.816%
CC(C)CNC(=O)C1(Cc2ccccc2-c2cccs2)CCNC1 (centres unmarked)	-1.797%
CCc1ccc2nc(C)cc(C(=O)N3C[C@H]4CCC[C@@]4(CO)C3)c2c1	1.204%
CC(C)CCN1C[C@H]2C[C@H](C(=O)Nc3ccccc3)[C@@H](C1)O2	-0.2766%
CCCS(=O)(=O)N1Cc2c(ncn2Cc2ccccc2)C[C@H]1C(=O)OC	-0.9916%
COC(=O)Cn1c(=O)cc(C(F)F)c2c(C)nn(CC(F)F)c21	0.3886%
COCCN(C)CCN1CC2(CCN(C3CCCNC3)CC2)OC1=O (centres unmarked)	3.841%
Cc1cc(C(=O)N[C@H]2Cc3ccccc3[C@@H]2N)c(=O)[nH]c1C	7.444%
O=C([C@@H]1CCO[C@@H]2CCN(CC3CCOCC3)C[C@H]21)N1CCCO1	2.213%
O=C(CN(CC1CCC1)CC(F)(F)F)N1CCCC1	-4.361%
CCc1cc(N[C@H]2CCC[C@H]2CO)n2nc(C)c(C)c2n1	3.947%
CC(C)c1cc(C2CCN(Cc3cc(F)cc(F)c3)CC2)[nH]n1	0.6988%
CN1N=C(C(=O)N2CCCC(CCc3c(F)cccc3F)C2)CCC1=O (centres unmarked)	-2.09%
CC[C@H](C)[C@H](NC(=O)Cc1csc(-c2cccc(Cl)c2)n1)C(=O)O	-2.814%
CC(C)CN1CC(C(=O)NCCc2c[nH]cn2)CC1=O (centres unmarked)	-0.6606%
CC(C)Oc1cccc(F)c1C(C(=O)O)N1CCCN(C)CC1 (centres unmarked)	0.784%
Cn1cc(CN(Cc2ccccc2)Cc2ccccn2)cn1	7.259%
COc1cc(C(=O)Nc2nc(C)no2)cc(Cl)c1OC	-0.1146%
COc1ccc(CC(=O)N2CCN(Cc3ccco3)C[C@H]2C)cc1OC	-7.813%
COC(=O)c1ccc(NC(=O)CN2CCCCC2C2OCCO2)cc1 (centres unmarked)	-1.906%
COc1ccc(CN2CCC3(CCCNC3)C2)cc1Cn1cccn1 (centres unmarked)	1.522%
COc1ccc(CN2CC[C@H](c3nc4cccc(C(N)=O)c4[nH]3)C2)cc1	-1.297%
COc1ccc(C2=CCN(C(=O)CN(C)CC(C)C#N)CC2)cc1 (centres unmarked)	1.967%
CC(C)N1CCC2(CC1)CC(NS(C)(=O)=O)c1ccccc1O2 (centres unmarked)	-5.535%
O=C(NCCn1nc(-n2cncn2)ccc1=O)c1ccc(F)cc1F	3.605%
CCCNC(=O)c1nc2c(o1)CN(C(C)=O)C2	-6.502%
CCS(=O)(=O)CCNC1CCN(c2nc3ccc(Cl)cc3s2)CC1	-3.964%
CC(c1ccc(C(F)(F)F)cc1)N1CCN(CCS(C)(=O)=O)CC1 (centres unmarked)	-0.7048%
COc1ccccc1C(=O)Nc1c(F)c(C(=O)NC2CCCC2)nn1C	6.796%
C[C@@H]1CN(C(=O)C2CCOCC2)C[C@]12CCN(c1cccnc1)C2=O	-0.9149%
Cn1c(CN2CCCC(N3CCNC3=O)C2)cc(=O)n(C)c1=O (centres unmarked)	4.379%
CN(C)c1cc(C(=O)NCCc2n[nH]c(=O)[nH]2)ccn1	0.3178%
CC(C)Oc1ccc(C(=O)Cn2cnnc2[S+](C)[O-])cc1 (centres unmarked)	1.319%
COCCN1CCCC12CCCN(c1nncs1)C2 (centres unmarked)	-2.151%
Clc1ccc(CNc2ccc(Cl)cn2)cc1	1.474%

Repeated from the top, 3 entries:

With Cn1c(-c2ccccc2)nn(CCNS(=O)(=O)c2ccccc2Cl)c1=O the screen gave 0.3799%.
With Cc1cc(NC(C)c2nncn2C2CCCC2)n2nc(C)c(C)c2n1 (centres unmarked) the screen gave 8.228%.
With Cc1cc(NC(=O)CNC2CCc3ncnn3C2)no1 (centres unmarked) the screen gave -8.205%.